Test results as given in the supplement of paper PMC3741180, “A Novel High Throughput Biochemical Assay to Evaluate the HuR Protein-RNA Complex Formation” (PLoS ONE, 2013).
The other results are listed elsewhere or left out. Most values lie within the scatter of the assay; repeated measurements hardly agree.

Chains of the proteins cited; added tags and fusions are not shown.
UniProt Q15717, whole entry: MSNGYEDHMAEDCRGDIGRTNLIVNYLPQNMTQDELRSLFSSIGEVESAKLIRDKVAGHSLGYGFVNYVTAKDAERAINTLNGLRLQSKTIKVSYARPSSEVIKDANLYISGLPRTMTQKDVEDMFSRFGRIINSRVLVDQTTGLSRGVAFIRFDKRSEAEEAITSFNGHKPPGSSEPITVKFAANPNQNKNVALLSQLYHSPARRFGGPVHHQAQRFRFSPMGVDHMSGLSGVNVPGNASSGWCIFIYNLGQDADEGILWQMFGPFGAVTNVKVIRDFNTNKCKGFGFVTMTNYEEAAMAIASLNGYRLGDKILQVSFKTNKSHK

biological target: HuR (ELAVL1) - TNFalpha ARE RNA complex (UniProt Q15717); test: AlphaScreen HuR-RNA complex signal Z-score relative to positive controls (secondary screen) (Z-score (SD units of positive control)); higher = more complex signal; conditions: screen stage: secondary re-screen

SMILES	AlphaScreen HuR-RNA complex signal Z-score
O=C(O)c1cc(=O)c2c(OCC(O)COc3cccc4oc(C(=O)O)cc(=O)c34)cccc2o1	1
CCCSc1ccc2[nH]c(NC(=O)OC)nc2c1	1.87
C=C[C@H]1CN2CC[C@H]1C[C@H]2[C@H](O)c1ccnc2ccc(OC)cc12	1.57
O=C(N[C@H](CO)[C@H](O)c1ccc([N+](=O)[O-])cc1)C(Cl)Cl	0.766
CC[C@H]1OC(=O)C[C@@H](O)[C@H](C)[C@@H](O[C@@H]2O[C@H](C)[C@@H](O)[C@H](N(C)C)[C@H]2O)[C@@H](CCN2C[C@H](C)C[C@H](C)C2)C[C@@H](C)C(=O)/C=C/C(C)=C/[C@@H]1CO[C@@H]1O[C@H](C)[C@@H](O)[C@@H](OC)[C@H]1OC	-4.5
Oc1ccc(Cl)c2cccnc12	0.491
CC(=O)OCC(COC(C)=O)OC(C)=O	1.53
N=C(NCCCCCCNC(=N)NC(=N)Nc1ccc(Cl)cc1)NC(=N)Nc1ccc(Cl)cc1	0.799
Oc1c(I)cc(I)c2cccnc12	1.22
CC(=O)c1ccc(S(=O)(=O)NC(=O)NC2CCCCC2)cc1	0.781
NS(=O)(=O)c1cc2c(cc1Cl)N=CNS2(=O)=O	0.408
CN(C(=O)C(Cl)Cl)c1ccc(OC(=O)c2ccco2)cc1	-2.15
CCCN(CCC)S(=O)(=O)c1ccc(C(=O)O)cc1	1.23
Oc1ccc(O)cc1	-6.13
Cc1noc(NS(=O)(=O)c2ccc(N)cc2)c1C	2.27
O=C1c2c(O)ccc(O)c2C(=O)c2c(NCCNCCO)ccc(NCCNCCO)c21	-3.08
COc1ccc(C(Cl)=C(c2ccc(OC)cc2)c2ccc(OC)cc2)cc1	1.04
CN(C)CCc1c[nH]c2ccc(Cn3cncn3)cc12	2.42
CC(C)CCC[C@@H](C)[C@H]1CC[C@H]2[C@@H]3C(=O)C=C4C[C@@H](O)CC[C@]4(C)[C@H]3CC[C@]12C	1.04

2 compounds picked at random from the list so far, as already listed:
SMILES	AlphaScreen HuR-RNA complex signal Z-score
C=C[C@H]1CN2CC[C@H]1C[C@H]2[C@H](O)c1ccnc2ccc(OC)cc12	1.57
CC(=O)c1ccc(S(=O)(=O)NC(=O)NC2CCCCC2)cc1	0.781

Continuation.

SMILES	AlphaScreen HuR-RNA complex signal Z-score
COC(=O)Nc1nc2cc([S+]([O-])c3ccccc3)ccc2[nH]1 (configuration not stated)	-0.284
Clc1ccccc1C(c1ccccc1)(c1ccccc1)n1ccnc1	0.655
CC1=C(C(=O)O)N2C(=O)[C@@H](NC(=O)[C@H](N)C3=CCC=CC3)[C@H]2SC1	-0.306
COc1ccc(C(=O)c2ccccc2O)c(O)c1	1.3
CNC[C@H](O)[C@@H](O)[C@H](O)[C@H](O)CO	-0.226
COc1cc2c(cc1OC)C1(O)C(=O)c3ccc(O)c(C(=O)O)c3OC1CO2 (configuration not stated)	0.463
Clc1cccc(Cl)c1NC1=NCCN1	0.932
CCCCCCCCCCC[C@@H](C[C@@H]1OC(=O)[C@H]1CCCCCC)OC(=O)[C@H](CC(C)C)NC=O	-7.29
CN[C@@H]1[C@@H](O)[C@@H](O[C@@H]2[C@@H](O)[C@H](O[C@H]3OC(CN)=CC[C@H]3N)[C@@H](N)C[C@H]2N)OC[C@]1(C)O	1.57
COc1cc(C(=O)N2CCOCC2)cc(OC)c1OC	2.06
CCCCOc1ccc(C(=O)CCN2CCCCC2)cc1	0.145
NS(=O)(=O)c1cc2c(cc1Cl)NC(C(Cl)Cl)NS2(=O)=O (configuration not stated)	1.08
CCOc1ccc2ccccc2c1C(=O)N[C@@H]1C(=O)N2[C@@H]1SC(C)(C)[C@@H]2C(=O)O	1.61
CN(C)CCOC(c1ccccc1)c1ccccc1.Cn1c(=O)c2[nH]c(Cl)nc2n(C)c1=O	1.55
CCc1ccc2c(O)c3c(cc2c1C(=O)OC)C(=O)c1c(O)ccc(O)c1C3=O	0.0835
O=c1[nH]cc(F)c(=O)[nH]1	0.987
NS(=O)(=O)c1cc(C2(O)NC(=O)c3ccccc32)ccc1Cl (configuration not stated)	0.301
O=C(O)c1cc(-c2ccc(F)cc2F)ccc1O	0.616
